Test results: publication PMC11781671
Results are given in words; binding and its absence hold for the method and conditions named. Binding seen in cells or lysates may run through a third protein. Binding calls can cover weak binding; strength is not graded here. Sequences can lack the tags named with a protein.

Biological target: T1, Flag-tagged CRYAB (exogenous) (human) (UniProt P02511)
T1 sequence: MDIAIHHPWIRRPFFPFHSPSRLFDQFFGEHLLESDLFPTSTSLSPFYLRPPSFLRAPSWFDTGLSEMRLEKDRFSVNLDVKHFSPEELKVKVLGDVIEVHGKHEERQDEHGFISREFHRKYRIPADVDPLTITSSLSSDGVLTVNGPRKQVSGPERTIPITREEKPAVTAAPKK
Test: co-IP; Huh7 cells co-transfected with a Flag-tagged host protein plasmid and an HBx plasmid; MG132 for the last 12 h; precipitated with anti-Flag beads

| Substance | binding |
| --- | --- |
| EGFP-HBx (wild type HBx of HBV genotype B fused downstream of EGFP) (Hepatitis B virus genotype B) | binds |
| EGFP-HBx(delC) (HBx lacking the C-terminal domain, fused downstream of EGFP) (Hepatitis B virus genotype B) (domain or fragment) | no binding |
